According to the supplement of paper PMC4683952:
Counter-ions that a name gives are not always drawn. Out of some 1,200 compounds screened, about 50 (4%) showed activity. No stated cut-off is given here; in the data, all actives reach 1.3 or more but so do some inactives. The list shows a part of the results.

Test system: Lgr5 (MarsCy1-Lgr5-EGFP, U2OS)
Test: cell-surface Lgr5 expression (SCi1 fluorescence, background-subtracted) relative to WT DMSO (fold of DMSO control); higher = more Lgr5 at the plasma membrane, active = hit call of the paper
Conditions: U2OS MarsCy1-Lgr5-EGFP stable; treatment time: overnight; 16 µM; library: Johns Hopkins Clinical Compound Library

| Compound | cell-surface Lgr5 expression |
| --- | --- |
| CC(C)NCC1CCc2cc(CO)c([N+](=O)[O-])cc2N1 (centres undefined) [Oxamniquine] | inactive: 1.14 |
| O=C1[C@H](CC[C@H](O)c2ccc(F)cc2)[C@@H](c2ccc(O)cc2)N1c1ccc(F)cc1 [Ezetimibe] | inactive: 0.86 |
| Cc1ccccc1CNc1ncnc2c1ncn2[C@@H]1O[C@H](CO)[C@@H](O)[C@H]1O [Metrifudil] | inactive: 0.972 |
| CN1CCN(c2c(F)cc3c(=O)c(C(=O)O)cn4c3c2SCC4)CC1 [Rufloxacin HCl] | inactive: 0.886 |
| CCCC(=O)[O-].[Na+] [Sodium butyrate (N-butyric acid)] | inactive: 1.01 |
| COC(=O)C1=C(C)NC(C)=C(C(=O)OCC(C)C)C1c1ccccc1[N+](=O)[O-] (centres undefined) [Nisoldipine] | inactive: 0.556 |
| CN(C)CCOC(c1ccc(Cl)cc1)c1ccccn1 (centres undefined) [Carbinoxamine] | inactive: 1.21 |
| CCCCCCCCCCCCCC(=O)O [Myristic acid] | inactive: 1.03 |
| O=C1C(O)=C([C@H]2CC[C@H](c3ccc(Cl)cc3)CC2)C(=O)c2ccccc21 [Atovaquone] | inactive: 1.33 |
| Cc1ccccc1C(OCCN(C)C)c1ccccc1 (centres undefined) [Orphenadrine citrate] | inactive: 1.36 |
| CC[N+](CC)(CC)CCOc1cccc(OCC[N+](CC)(CC)CC)c1OCC[N+](CC)(CC)CC [Gallamine triethiodide] | inactive: 1.15 |
| NCc1ccc(S(N)(=O)=O)cc1 [Mafenide (p-aminomethylbenzenesulfonamide)] | inactive: 0.912 |
| CCc1oc2ccccc2c1C(=O)c1cc(Br)c(O)c(Br)c1 [Benzbromarone] | inactive: 0.991 |
| CC/C(=C(\c1ccccc1)c1ccc(OCCN(C)C)cc1)c1ccccc1 [Tamoxifen] | inactive: 1.07 |
| CC(=O)Nc1ccc(C(=O)O)cc1 [Acedoben (4-Acetamidobenzoic acid)] | inactive: 1.03 |
| CCOc1ccc(NC(C)=O)cc1 [Phenacetin (acetophenetidin)] | inactive: 1.24 |
| CN1CCC[C@@H]1CCO[C@](C)(c1ccccc1)c1ccc(Cl)cc1 [Clemastine] | inactive: 1.12 |
| CO[Si](C)(C)O[Si](C)(C)C.O=[Si]=O [Simethicone (40mg/0.6mL)] | inactive: 1.21 |
| NC(Cc1c[nH]c2ccc(O)cc12)C(=O)O (racemic) [5-hydroxy-DL-Tryptophan] | inactive: 0.953 |
| COc1ccc(C(=O)c2ccccc2O)c(O)c1 [Dioxybenzone (2,2'-Dihydroxy-4-methoxybenzophenone)] | inactive: 0.985 |
| COc1ccc(CN2CCN(C(c3ccc(F)cc3)c3ccc(F)cc3)CC2)c(OC)c1OC [Lomerizine HCl] | inactive: 1.15 |
| CC(C)Cc1ccc(C(C)C(=O)O)cc1 (centres undefined) [Ibuprofen] | inactive: 0.932 |
| C[N+](C)([O-])CCCN1c2ccccc2CCc2ccccc21 [Imipraminoxide (Imipramine n-oxide)] | inactive: 1.03 |

| Compound | cell-surface Lgr5 expression |
| --- | --- |
| N.N.O=P(O)(O)O [Ammonium phosphate dibasic] | inactive: 0.953 |
| CC1=C(C/C=C(\C)CCC[C@H](C)CCC[C@H](C)CCCC(C)C)C(=O)c2ccccc2C1=O [Vitamin K1 (Phylloquinone, phytonadione)] | inactive: 0.865 |
| O=C(O)CCc1cc(I)c(Oc2ccc(O)c(I)c2)c(I)c1 [Thyropropic acid (3,3',5-triiodothyropropionic acid)] | inactive: 0.877 |
| Nc1ccc(S(=O)(=O)Nc2ccccn2)cc1 [Sulfapyridine] | inactive: 0.968 |
| Nc1ccn([C@@H]2O[C@H](CO)[C@@H](O)[C@@H]2O)c(=O)n1 [Cytarabine (Cytosine 1-b-D-arabinofuranoside)] | inactive: 0.815 |
| COc1ccnc(C[S+]([O-])c2nc3cc(OC(F)F)ccc3[nH]2)c1OC (centres undefined) [Pantoprazole] | inactive: 1.01 |
| C[C@@H]1C[C@H]2[C@@H]3C[C@H](F)C4=CC(=O)C=C[C@]4(C)[C@@]3(F)[C@@H](O)C[C@]2(C)[C@@]1(O)C(=O)COC(=O)C(C)(C)C [Flumethasone pivalate] | active: 1.37 |
| C[N+](C)(C)[C@@H](Cc1c[nH]c(=S)[nH]1)C(=O)[O-] [Ergothioneine] | inactive: 0.399 |
| O=c1ccc2ccccc2o1 [Coumarin] | inactive: 0.988 |
| CN(C)CCCN1c2ccccc2Sc2ccc(Cl)cc21 [Chlorpromazine] | inactive: 0.872 |
| COc1ccc(CC2c3cc(OC)c(OC)cc3CC[N+]2(C)CCC(=O)OCCCCCOC(=O)CC[N+]2(C)CCc3cc(OC)c(OC)cc3C2Cc2ccc(OC)c(OC)c2)cc1OC (centres undefined) [Atracurium besylate] | inactive: 0.941 |
| CC(=O)[C@H]1CC[C@H]2[C@@H]3CC=C4C[C@@H](O)CC[C@]4(C)[C@H]3CC[C@]12C [PREGNENOLONE (5-Pregnen-3B-ol-20-one)] | inactive: 0.861 |
| O=CC(O)C(O)C(O)C(O)CO (centres undefined) [Glucose (D)] | inactive: 1.02 |
| O=P([O-])([O-])[O-].O=P([O-])([O-])[O-].[Mg+2].[Mg+2].[Mg+2] [Magnesium phosphate hydrate] | inactive: 0.899 |
| CC(C)(C)c1ccc(C(O)CCCN2CCC(C(O)(c3ccccc3)c3ccccc3)CC2)cc1 (centres undefined) [Terfenadine] | inactive: 1.28 |
| O=c1[nH]c(=O)n([C@H]2C[C@H](O)[C@@H](CO)O2)cc1Br | inactive: 1.25 |
| CCCCC1(COC(=O)CCC(=O)O)C(=O)N(c2ccccc2)N(c2ccccc2)C1=O [Suxibuzone] | inactive: 1.14 |
| COc1cc(NC(C)CCCN)c2ncccc2c1 (centres undefined) [Primaquine] | inactive: 0.511 |
| CCCCNc1c(C(=O)OCC)c(C)nc2c1cnn2CC [Tracazolate] | inactive: 0.998 |
| CC[N+](CC)(CC)CC(=O)Nc1c(C)cccc1C [Lidocaine N-ethyl bromide] | active: 1.39 |
| COc1cc(-c2ccc(=O)[nH]n2)ccc1OC(F)F [Zardaverine] | inactive: 0.72 |
| Cl.N=C(N)NCCC[C@H](N)C(=O)O [L-Arginine hydrochloride] | inactive: 0.829 |
| CC1=C(/C=C/C(C)=C/C=C/C(C)=C\C(=O)O)C(C)(C)CCC1 [Isotretinoin (13-cis-retinoic acid)] | inactive: 1.08 |

| Compound | cell-surface Lgr5 expression |
| --- | --- |
| CN(C)CCOC(C)(c1ccccc1)c1ccc(Cl)cc1 (centres undefined) [Chlorphenoxamine hydrochloride] | inactive: 1.15 |
| O=C([O-])[O-].[Li+].[Li+] [Lithium carbonate] | inactive: 0.278 |
| Cc1cc(NS(=O)(=O)c2ccc(N)cc2)nc(C)n1 [Sulfisomidine] | inactive: 1.33 |
| CCCCCCCCCCCCCCCCOP(=O)([O-])OCC[N+](C)(C)C [Miltefosine (hexadecyl phosphocholine)] | inactive: 1.05 |
| CN(C)c1ccc(O)c2c1C[C@H]1C[C@H]3[C@H](N(C)C)C(O)=C(C(N)=O)C(=O)[C@@]3(O)C(O)=C1C2=O [Minocycline hydrochloride salt] | inactive: 0.437 |
| C[N+](C)(C)CCOC(=O)CCC(=O)OCC[N+](C)(C)C [Succinylcholine chloride dihydrate] | inactive: 1.22 |
| Nc1nc(NC2CC2)c2ncn([C@H]3C=C[C@@H](CO)C3)c2n1 [Abacavir] | inactive: 1.08 |
| CCN(CC)CCNc1ccc(CO)c2sc3ccccc3c(=O)c12 [Hycanthone] | inactive: 1.28 |
| CNC(C)CCC=C(C)C (centres undefined) [Isometheptene mucate] | inactive: 0.732 |
| CC(C)(C)CC(C)(C)c1ccc(O)c(Cc2ccc(Cl)cc2Cl)c1 [Clofoctol] | inactive: 1.06 |
| OC(CCCN1CCCCC1)(c1ccccc1)c1ccccc1 [Diphenidol] | inactive: 1.13 |
| OC(CCCN1CCCCC1)(c1ccccc1)c1ccccc1 [Difenidol hydrochloride (Diphenidol)] | inactive: 1.08 |
| C[C@]12CC[C@@H]3c4ccc(OS(=O)(=O)O)cc4CC[C@H]3[C@@H]1CCC2=O [Estrone-3-sulfate] | inactive: 0.885 |
| CCCCCCCCCCCC[N+](C)(C)CCOc1ccccc1 [Domiphen bromide] | inactive: 0.864 |
| C=CCSCC1Nc2cc(Cl)c(S(N)(=O)=O)cc2S(=O)(=O)N1 (centres undefined) [Althiazide] | inactive: 1.27 |
| Cc1cc(-c2ccc(/N=N/c3ccc4c(S(=O)(=O)O)cc(S(=O)(=O)O)c(N)c4c3O)c(C)c2)ccc1/N=N/c1ccc2c(S(=O)(=O)O)cc(S(=O)(=O)O)c(N)c2c1O [Evans blue] | inactive: 1.18 |
| c1ccc(CN(CC2=NCCN2)c2ccccc2)cc1 [Antazoline] | inactive: 1.21 |
| c1ccc(CN(CC2=NCCN2)c2ccccc2)cc1 [Antazoline phosphate salt] | inactive: 1.28 |
| CN(C)CC/C=C1/c2ccccc2COc2ccc(CC(=O)O)cc21 [Olopatadine hydrochloride ophthalmic solution] | inactive: 0.992 |
| CC(=O)Nc1ccc(OC(C)(C)C)cc1 [Butacetin (4-Butoxyacetanilide)] | inactive: 1.28 |
| CCOC(C)OCC [Acetal] | inactive: 1.06 |
| CC(=O)OCC(=O)[C@H]1CC[C@H]2[C@@H]3CCC4=CC(=O)CC[C@]4(C)[C@H]3CC[C@]12C | inactive: 1.01 |
| N=C(N)NCCN1CCCCCCC1 [Guanethidine] | inactive: 0.924 |

Fetched one by one from the list above, five records:

| Compound | cell-surface Lgr5 expression |
| --- | --- |
| CCCCCCCCCCCCCCCCOP(=O)([O-])OCC[N+](C)(C)C [Miltefosine (hexadecyl phosphocholine)] | inactive: 1.05 |
| C=CCSCC1Nc2cc(Cl)c(S(N)(=O)=O)cc2S(=O)(=O)N1 (centres undefined) [Althiazide] | inactive: 1.27 |
| CC(=O)Nc1ccc(OC(C)(C)C)cc1 [Butacetin (4-Butoxyacetanilide)] | inactive: 1.28 |
| OC(CCCN1CCCCC1)(c1ccccc1)c1ccccc1 [Difenidol hydrochloride (Diphenidol)] | inactive: 1.08 |
| CN(C)CCOC(C)(c1ccccc1)c1ccc(Cl)cc1 (centres undefined) [Chlorphenoxamine hydrochloride] | inactive: 1.15 |
